Measured values as given in the supplement of paper PMC5949888.
± gives the standard deviation of the averaged measurements. Most values lie at the floor of the assay. Slopes are relative: functional sequences can read slightly below zero.

What follows are substances tested on Saccharomyces cerevisiae PS128 hsf1 delta, HSF1(1-493) fusion (assay: growth estimate (transactivation domain function in HSF1 fusion, heat-shock survival) (a.u. (slope of normalised read count over time)); higher = stronger growth at 37°C, i.e. more transactivation activity). Conditions: library: random library.
In the case of VWRIDECDSMQHA, the growth estimate is reported as under -0.25. Substance VNKQPWLDSRGPVILWQLVS has a growth estimate of -0.168. Work on ARRNSDTYMPNQVDSSLFSG yielded a growth estimate of under -0.25. VRSEAGRPKRGLGSTS gave a growth estimate of under -0.25. With HGSSSPSV the growth estimate was under -0.25. EHYTIRFGVRVYCGAIFGGA showed a growth estimate of under -0.25. In the case of KACSYD, the growth estimate is reported as under -0.25. In the case of PESSRNPLLGFWNWEVVYYM, the growth estimate is reported as under -0.25. Substance ISLRSRENAFLRRPSKFHGV has a growth estimate of under -0.25. SACPGGWNPDSSAMMPRRAK gave a growth estimate of under -0.25. With EYAKCKA the growth estimate was under -0.25. FGTSRQKTCCPLSLQRDRFP was tested, and the growth estimate was -0.245. FKGIGRKELNQMTPAGREQP was tested, and the growth estimate was under -0.25. RPLK was tested, and the growth estimate was under -0.25. In the case of DGGAKRSISRGIGRYESTLQ, the growth estimate is reported as under -0.25. In the case of TKVEVGPRLPRLMSKIELCP, the growth estimate is reported as under -0.25. Substance RGFM has a growth estimate of under -0.25. For WITW, the growth estimate was under -0.25. TTLDPAEGQRDTRNYVSFGC gave a growth estimate of under -0.25. Work on SDPWISSPAKEPQVCARSSL yielded a growth estimate of under -0.25. Work on SYKGGFFQRIPNKESRLSAT yielded a growth estimate of under -0.25. HNDPTQKASSGANLRLRSVQ gave a growth estimate of under -0.25. In the case of GCKGSGAPTAASIVGVSNGK, the growth estimate is reported as under -0.25. PPSAIRKDPRHLFPPTL gave a growth estimate of -0.229. For IILPYQSQCW, the growth estimate was under -0.25. In the case of TTQSSRLARRRRKSGSNNAY, the growth estimate is reported as under -0.25. With VFEVLCTACISVGEVTHARP the growth estimate was under -0.25. For QSGSTDVLQLGILVRLDPAS, the growth estimate was under -0.25. Work on YYANPILDRVRRFGYPHSRC yielded a growth estimate of under -0.25. KKGGLSNPGV showed a growth estimate of -0.245. For VVHLATWPSGRYRV, the growth estimate was under -0.25. GVERVYASNTRRFMYIANGN gave a growth estimate of under -0.25. LTKKLDGLRLTIRG was tested, and the growth estimate was under -0.25. TPPLF gave a growth estimate of under -0.25. QRTNAEIGDNR showed a growth estimate of under -0.25. With DGLGVRRYQKITTVRNVNLC the growth estimate was under -0.25. With VFSSSPPAVSSTLPCIIVRG the growth estimate was under -0.25. VLSSHSVGVGSNSDTLTSFD was tested, and the growth estimate was under -0.25. With GGIGFFRGSSTNYDGRGTE the growth estimate was under -0.25. TATSEHLYLLTVLRQECSMY gave a growth estimate of under -0.25. In the case of TGGYRRDRHPSGELDIHRPK, the growth estimate is reported as under -0.25. VALSRKRCLDGYCYSIAGSV was tested, and the growth estimate was under -0.25. CVRHGC showed a growth estimate of under -0.25. In the case of LTCQLWILVLWSISSDGRQA, the growth estimate is reported as under -0.25. GARVKHTRTASRFFMSRSSG gave a growth estimate of under -0.25. With VRNSLGRGGERIGVYSVSWG the growth estimate was under -0.25. With ARIGAC the growth estimate was under -0.25. Work on FLLGIGRPLVMLGKRRPP yielded a growth estimate of under -0.25. Work on CKTLMGPCSPKGYVGSGAPV yielded a growth estimate of -0.158. For YNKHFRTFPTAR, the growth estimate was under -0.25. For DHG, the growth estimate was under -0.25. SPDSNSKSP was tested, and the growth estimate was under -0.253. In the case of EKRQVLRFGAGGRFSLSARR, the growth estimate is reported as -0.245. PLQKFFGVKSSNCSAGCDDG showed a growth estimate of under -0.25. For TLGPGSEQLKRVALEPGTAW, the growth estimate was under -0.25. In the case of PTNRATNHGPVRKRHCRSDL, the growth estimate is reported as under -0.25. In the case of AVLCGFPSQRVKQSLSRK, the growth estimate is reported as under -0.25. In the case of SFIPITPIDVSAINTVGEPS, the growth estimate is reported as under -0.25. With TIASVRD the growth estimate was under -0.25. CTKREGNDAGLSRPRWPCYG showed a growth estimate of under -0.25. In the case of VRRGPFAFVEAIGCQL, the growth estimate is reported as under -0.25. For PDGSQVVL, the growth estimate was under -0.25. RSVLVSR showed a growth estimate of under -0.25. PSETNDRYYISN was tested, and the growth estimate was under -0.25. ERVRRRYG was tested, and the growth estimate was under -0.25. SDYASRDISSNFENREILAA gave a growth estimate of under -0.25. In the case of SEEGSGLLTQRNYGDRSFKR, the growth estimate is reported as under -0.25. CWYKLRRGSPSSPPAQCSAH gave a growth estimate of under -0.25. Substance GYPIGDPHLVATRWALRQGH has a growth estimate of under -0.25. RNTTGQYPL showed a growth estimate of under -0.25. Substance QEGFMSPKWKLALRLRICRV has a growth estimate of under -0.25. YPISR gave a growth estimate of under -0.25. SHICILEPGHLSTCFPWRIA gave a growth estimate of under -0.25. GKSRGPSTSPPIRGSNSPHG showed a growth estimate of under -0.25. DLPALHVGLRPYFI was tested, and the growth estimate was under -0.25. For GIGISPRLL, the growth estimate was under -0.25. RARYRRECRPFHWKGKDECL gave a growth estimate of under -0.25. With VRKLFRPGVLLRK the growth estimate was under -0.25. SCGMRGCIK showed a growth estimate of under -0.25. In the case of IRLVIDFVRQFTSDGYSSRN, the growth estimate is reported as under -0.25. GIIEEYAGDVNGRGQEGPLL was tested, and the growth estimate was under -0.25. With GVPVVWLGGERLVDIIRFIQ the growth estimate was under -0.25. In the case of RLTQGHYRVGLNMFSICRA, the growth estimate is reported as under -0.25. Substance YQPVDHIIRSHGRR has a growth estimate of under -0.25. MRPYSARRRLLTGKPRPPVR was tested, and the growth estimate was under -0.25. Work on YQANSGRMLNSG yielded a growth estimate of under -0.25. Substance MDAPVSFETGVMKIVRTAVR has a growth estimate of under -0.25. Work on SQTFGE yielded a growth estimate of under -0.25. For ITANGSPAGHRPVRIVPSPT, the growth estimate was under -0.25. Work on PGRRWVTTSALYTIFCRGER yielded a growth estimate of under -0.25. Work on EQHGLP yielded a growth estimate of under -0.25. ECLVEE gave a growth estimate of under -0.25. NETKELRMAQCCQQQVDRTR was tested, and the growth estimate was under -0.25. For RVGL, the growth estimate was under -0.25. For PRIRPTQVC, the growth estimate was under -0.25. For RSRQGSV, the growth estimate was under -0.25. Work on SVGRRKFLNLARFSRYSQTQ yielded a growth estimate of under -0.25. Substance LRVGTMK has a growth estimate of under -0.25. With IMASRYEGCIVLELPPGSFK the growth estimate was under -0.25. FFQ showed a growth estimate of under -0.25. Substance GDRVAKYILRQAFR has a growth estimate of under -0.25. VNTDRVCGDGSPFQCGDYSQ gave a growth estimate of under -0.25. SHRITRGRPSAWVTRAKKNT showed a growth estimate of under -0.25. SYLSKGCSG was tested, and the growth estimate was under -0.25. NGASANMFWDTWVYSKPLSP gave a growth estimate of 0.0801. With PQLCGINDQKSWVGRTLSND the growth estimate was under -0.25. In the case of AQRRSEPHLDLSSHTELRFG, the growth estimate is reported as under -0.25. Work on PLVLPDDNPFDP yielded a growth estimate of -0.179. QIARLRVFRWLASPRERDHI showed a growth estimate of under -0.25. In the case of LPAASSSKDWVPTGLVQLII, the growth estimate is reported as under -0.25. RFE gave a growth estimate of under -0.25. Work on EDVREPGLYMYPHRRTSKEP yielded a growth estimate of under -0.25. In the case of YREVFVSLLRGLQREGGYGS, the growth estimate is reported as under -0.25. Work on VSVVGGKMSVCAAQTHGPHW yielded a growth estimate of under -0.25. In the case of GEGK, the growth estimate is reported as under -0.25. In the case of SIAMQWVGTVSLVWEELGSS, the growth estimate is reported as under -0.25. Work on LVMLTCQVRSNSSSAVRGKL yielded a growth estimate of under -0.25. LQGVQLIDAS showed a growth estimate of under -0.25. EEDP gave a growth estimate of under -0.25. AIDQTSWGEVS gave a growth estimate of under -0.25. ELSVVTGMR was tested, and the growth estimate was under -0.25. With SPVEVHEPQQAELGVSRRQK the growth estimate was under -0.25. IRSAVTGLIRFLGCLGRGSH showed a growth estimate of under -0.25. For SDKQCFGRVLGFKAY, the growth estimate was -0.246. PGTHVTIVGSGGQVVHPRPC was tested, and the growth estimate was under -0.25. GWNRL was tested, and the growth estimate was under -0.25. RPHRVGSLRLRNWHYLEVGM gave a growth estimate of under -0.25. In the case of EDIRRRLLGGLGRGSG, the growth estimate is reported as under -0.25. Substance VNGARLRGGVGLH has a growth estimate of under -0.25. With HSDGCRRSHPGFRSFITSFT the growth estimate was under -0.25. For QDR, the growth estimate was under -0.25. In the case of AGFLGNMALSIDTSLPRGKP, the growth estimate is reported as under -0.25. TFFNLLTKCPVEIKRRGAPN showed a growth estimate of under -0.25. With AVPLWDV the growth estimate was under -0.25. Substance ISTVIRLRKAVSRSPSPRGL has a growth estimate of under -0.25. TILYDRFVS gave a growth estimate of under -0.25. ASVGLWVEDWAQDPEQLSGQ gave a growth estimate of under -0.25. Work on WVR yielded a growth estimate of under -0.25. GRWVTGSDRCSRPKTCHSAS was tested, and the growth estimate was under -0.25. DYEELDFSVYEAEIVSGN was tested, and the growth estimate was 2.4. NFASTRSGKLPRHYSERRRV showed a growth estimate of under -0.25. SQCPRGLLSALGRVTSL gave a growth estimate of under -0.25. LAI gave a growth estimate of under -0.25. HSIISVNK showed a growth estimate of under -0.25. LYTLLTIKDLPRGGSGQN was tested, and the growth estimate was under -0.25. Substance PAWIAFECLDDLGGVDWLVA has a growth estimate of under -0.25. Work on GKVTWQLSGEVAPHAGQASS yielded a growth estimate of under -0.25. ARRIFVWYHVGDVE showed a growth estimate of under -0.25. CVCRTACRSSTAVIGRALAF was tested, and the growth estimate was under -0.25. VLAVGCTMVAHWVATITAGV showed a growth estimate of under -0.25. NFGGTSAVRASRYGRIQSWA showed a growth estimate of under -0.25. Work on TSAGIVLRCIDPDVPISVCH yielded a growth estimate of under -0.25. GLSTNLLNGTKGCKSGGTVV gave a growth estimate of under -0.25. Substance FLETMGYD has a growth estimate of under -0.25. For WHGGGRNGAMELS, the growth estimate was under -0.25. LNS gave a growth estimate of -0.2491 ± 0.0013.
